From paper PMC7374096
Results are given in words; binding and its absence hold for the method and conditions named. Binding seen in cells or lysates may run through a third protein. Some entries that bind do so weakly or less than the wild type.

Amino acid sequences for entries named in this document (tags omitted). A change or cut given only in a name is not applied to a line headed by its entry. Residues count along the entry.
GFP-RLD1 fusion containing 365–794 amino acid residues of HERC1 (pFG41 construct) (Q15751, residues 365-794): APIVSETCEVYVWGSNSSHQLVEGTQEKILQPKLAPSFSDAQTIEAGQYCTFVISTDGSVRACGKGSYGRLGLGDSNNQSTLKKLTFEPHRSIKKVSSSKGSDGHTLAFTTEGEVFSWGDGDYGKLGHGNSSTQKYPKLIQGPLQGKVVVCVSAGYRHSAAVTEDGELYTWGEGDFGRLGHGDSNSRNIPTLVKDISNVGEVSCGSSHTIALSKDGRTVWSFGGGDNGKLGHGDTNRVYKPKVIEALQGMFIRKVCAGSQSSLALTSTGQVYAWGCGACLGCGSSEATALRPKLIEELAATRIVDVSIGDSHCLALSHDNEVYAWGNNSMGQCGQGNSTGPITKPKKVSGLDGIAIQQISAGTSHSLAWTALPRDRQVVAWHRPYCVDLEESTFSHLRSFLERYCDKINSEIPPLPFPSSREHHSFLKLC
UniProt Q00610: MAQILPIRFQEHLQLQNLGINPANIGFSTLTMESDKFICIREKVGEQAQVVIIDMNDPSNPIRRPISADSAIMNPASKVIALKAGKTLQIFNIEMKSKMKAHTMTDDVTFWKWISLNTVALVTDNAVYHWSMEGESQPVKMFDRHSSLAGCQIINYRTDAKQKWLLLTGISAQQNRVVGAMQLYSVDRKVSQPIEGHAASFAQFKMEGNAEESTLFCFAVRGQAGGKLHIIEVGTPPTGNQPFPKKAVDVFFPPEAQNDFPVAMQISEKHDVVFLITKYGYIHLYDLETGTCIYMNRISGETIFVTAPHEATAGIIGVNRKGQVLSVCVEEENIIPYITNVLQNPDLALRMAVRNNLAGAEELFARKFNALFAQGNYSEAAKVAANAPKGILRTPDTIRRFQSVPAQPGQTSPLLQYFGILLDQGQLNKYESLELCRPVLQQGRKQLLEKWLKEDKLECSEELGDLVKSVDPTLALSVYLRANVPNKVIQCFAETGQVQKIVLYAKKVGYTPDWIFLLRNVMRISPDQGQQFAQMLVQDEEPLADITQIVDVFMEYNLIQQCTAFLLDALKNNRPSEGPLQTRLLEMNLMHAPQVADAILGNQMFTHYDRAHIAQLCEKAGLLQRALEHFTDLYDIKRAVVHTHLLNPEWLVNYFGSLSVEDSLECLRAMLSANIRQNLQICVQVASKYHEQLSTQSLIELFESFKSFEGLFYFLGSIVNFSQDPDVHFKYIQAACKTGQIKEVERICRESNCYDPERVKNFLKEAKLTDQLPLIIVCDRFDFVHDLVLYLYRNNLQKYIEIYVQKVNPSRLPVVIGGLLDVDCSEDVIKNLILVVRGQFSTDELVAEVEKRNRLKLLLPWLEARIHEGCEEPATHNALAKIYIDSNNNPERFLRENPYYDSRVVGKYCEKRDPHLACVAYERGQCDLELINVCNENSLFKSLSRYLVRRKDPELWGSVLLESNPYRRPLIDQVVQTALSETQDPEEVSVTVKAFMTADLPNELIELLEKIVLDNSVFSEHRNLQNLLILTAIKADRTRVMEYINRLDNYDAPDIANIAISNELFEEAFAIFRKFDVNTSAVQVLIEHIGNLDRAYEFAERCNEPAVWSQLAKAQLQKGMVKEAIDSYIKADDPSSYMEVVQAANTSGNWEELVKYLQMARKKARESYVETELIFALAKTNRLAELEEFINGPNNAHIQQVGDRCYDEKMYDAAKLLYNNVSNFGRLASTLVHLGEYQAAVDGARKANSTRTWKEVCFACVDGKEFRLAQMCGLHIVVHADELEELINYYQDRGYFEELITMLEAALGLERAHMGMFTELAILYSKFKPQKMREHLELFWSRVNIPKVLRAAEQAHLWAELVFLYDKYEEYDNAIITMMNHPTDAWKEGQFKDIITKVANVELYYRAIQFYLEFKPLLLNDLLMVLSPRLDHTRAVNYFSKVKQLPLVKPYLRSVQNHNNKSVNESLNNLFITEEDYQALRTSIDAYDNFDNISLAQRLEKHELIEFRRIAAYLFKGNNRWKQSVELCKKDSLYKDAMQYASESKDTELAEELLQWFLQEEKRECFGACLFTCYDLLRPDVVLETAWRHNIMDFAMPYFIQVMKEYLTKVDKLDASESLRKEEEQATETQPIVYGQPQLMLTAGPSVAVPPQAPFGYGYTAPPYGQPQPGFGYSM

Legend:
[1] = biological target: GFP-RLD1 fusion containing 365–794 amino acid residues of HERC1 (pFG41 construct) (UniProt Q15751); experiment: pull-down; GFP fusion constructs expressed in HEK-293T cells for 72 h; cell lysates incubated with GFP-Trap Agarose resin about 2 h at 4 °C; washed three times with NP40 buffer; retained proteins immunoblotted (anti-clathrin heavy chain, anti-GFP, anti-HERC1)
[2] = biological target: GFP-RLD1 fusion (HERC1 365–794) with the tambaleante mutation Gly483Glu (pFG44 construct) (UniProt Q15751); experiment: as above

## clathrin heavy chain (from UniProt Q00610 1-1675)
[1]
  binding: binds
[2]
  binding: no binding
